Values joined by “and” are separate entries in the source; they are usually repeats but may differ in a detail not shown here. Equal values may be shown once. In all, about 290,000 compounds went through this assay and about 110 (0.038%) were called active. This list was built around the results that the source calls inconclusive (neither active nor inactive); the mix of calls is not that of the screen. The call rests on the fitted dose curve; in most records, active means well fitted inhibition curve with a large enough effect in the polarisation, with a control signal flat (not every such curve was filed as active); inconclusive means small, poorly fitted or top-dose-only effect, or effect the other way, or a change in a side signal; inactive means no such curve, though single readings can be large or run the other way; the % refers to the polarisation. A potency beside an inconclusive call is a rough fit, not a confirmed value. “Side channel” marks fits to a control or component signal instead of the main read-out.
Target: Histone-lysine N-methyltransferase 2A (Homo sapiens) (UniProt Q03164)
Assay: qHTS Fluorescence Polarization Assay for Inhibitors of MLL CXXC domain - DNA interaction
Settings: MLL-CXXC / FITC-HOXA9 DNA fluorescence polarization; series mostly up to 115 µM
In short: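 Purified MLL-CXXC (added from a 7 uM solution) was preincubated 5 min at ambient with pinned compounds in 50 mM Tris-HCl pH 7.5, 50 mM NaCl, 1 mM DTT, 0.05% BSA. Fluorescein-labeled HOX-A9 DNA (50 nM solution) followed, 30 min, then polarization read.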
Potency means the concentration at half of the fitted maximal effect.

Amino acid sequences for entries named in this document (tags omitted).
UniProt Q03164, whole entry, looked up: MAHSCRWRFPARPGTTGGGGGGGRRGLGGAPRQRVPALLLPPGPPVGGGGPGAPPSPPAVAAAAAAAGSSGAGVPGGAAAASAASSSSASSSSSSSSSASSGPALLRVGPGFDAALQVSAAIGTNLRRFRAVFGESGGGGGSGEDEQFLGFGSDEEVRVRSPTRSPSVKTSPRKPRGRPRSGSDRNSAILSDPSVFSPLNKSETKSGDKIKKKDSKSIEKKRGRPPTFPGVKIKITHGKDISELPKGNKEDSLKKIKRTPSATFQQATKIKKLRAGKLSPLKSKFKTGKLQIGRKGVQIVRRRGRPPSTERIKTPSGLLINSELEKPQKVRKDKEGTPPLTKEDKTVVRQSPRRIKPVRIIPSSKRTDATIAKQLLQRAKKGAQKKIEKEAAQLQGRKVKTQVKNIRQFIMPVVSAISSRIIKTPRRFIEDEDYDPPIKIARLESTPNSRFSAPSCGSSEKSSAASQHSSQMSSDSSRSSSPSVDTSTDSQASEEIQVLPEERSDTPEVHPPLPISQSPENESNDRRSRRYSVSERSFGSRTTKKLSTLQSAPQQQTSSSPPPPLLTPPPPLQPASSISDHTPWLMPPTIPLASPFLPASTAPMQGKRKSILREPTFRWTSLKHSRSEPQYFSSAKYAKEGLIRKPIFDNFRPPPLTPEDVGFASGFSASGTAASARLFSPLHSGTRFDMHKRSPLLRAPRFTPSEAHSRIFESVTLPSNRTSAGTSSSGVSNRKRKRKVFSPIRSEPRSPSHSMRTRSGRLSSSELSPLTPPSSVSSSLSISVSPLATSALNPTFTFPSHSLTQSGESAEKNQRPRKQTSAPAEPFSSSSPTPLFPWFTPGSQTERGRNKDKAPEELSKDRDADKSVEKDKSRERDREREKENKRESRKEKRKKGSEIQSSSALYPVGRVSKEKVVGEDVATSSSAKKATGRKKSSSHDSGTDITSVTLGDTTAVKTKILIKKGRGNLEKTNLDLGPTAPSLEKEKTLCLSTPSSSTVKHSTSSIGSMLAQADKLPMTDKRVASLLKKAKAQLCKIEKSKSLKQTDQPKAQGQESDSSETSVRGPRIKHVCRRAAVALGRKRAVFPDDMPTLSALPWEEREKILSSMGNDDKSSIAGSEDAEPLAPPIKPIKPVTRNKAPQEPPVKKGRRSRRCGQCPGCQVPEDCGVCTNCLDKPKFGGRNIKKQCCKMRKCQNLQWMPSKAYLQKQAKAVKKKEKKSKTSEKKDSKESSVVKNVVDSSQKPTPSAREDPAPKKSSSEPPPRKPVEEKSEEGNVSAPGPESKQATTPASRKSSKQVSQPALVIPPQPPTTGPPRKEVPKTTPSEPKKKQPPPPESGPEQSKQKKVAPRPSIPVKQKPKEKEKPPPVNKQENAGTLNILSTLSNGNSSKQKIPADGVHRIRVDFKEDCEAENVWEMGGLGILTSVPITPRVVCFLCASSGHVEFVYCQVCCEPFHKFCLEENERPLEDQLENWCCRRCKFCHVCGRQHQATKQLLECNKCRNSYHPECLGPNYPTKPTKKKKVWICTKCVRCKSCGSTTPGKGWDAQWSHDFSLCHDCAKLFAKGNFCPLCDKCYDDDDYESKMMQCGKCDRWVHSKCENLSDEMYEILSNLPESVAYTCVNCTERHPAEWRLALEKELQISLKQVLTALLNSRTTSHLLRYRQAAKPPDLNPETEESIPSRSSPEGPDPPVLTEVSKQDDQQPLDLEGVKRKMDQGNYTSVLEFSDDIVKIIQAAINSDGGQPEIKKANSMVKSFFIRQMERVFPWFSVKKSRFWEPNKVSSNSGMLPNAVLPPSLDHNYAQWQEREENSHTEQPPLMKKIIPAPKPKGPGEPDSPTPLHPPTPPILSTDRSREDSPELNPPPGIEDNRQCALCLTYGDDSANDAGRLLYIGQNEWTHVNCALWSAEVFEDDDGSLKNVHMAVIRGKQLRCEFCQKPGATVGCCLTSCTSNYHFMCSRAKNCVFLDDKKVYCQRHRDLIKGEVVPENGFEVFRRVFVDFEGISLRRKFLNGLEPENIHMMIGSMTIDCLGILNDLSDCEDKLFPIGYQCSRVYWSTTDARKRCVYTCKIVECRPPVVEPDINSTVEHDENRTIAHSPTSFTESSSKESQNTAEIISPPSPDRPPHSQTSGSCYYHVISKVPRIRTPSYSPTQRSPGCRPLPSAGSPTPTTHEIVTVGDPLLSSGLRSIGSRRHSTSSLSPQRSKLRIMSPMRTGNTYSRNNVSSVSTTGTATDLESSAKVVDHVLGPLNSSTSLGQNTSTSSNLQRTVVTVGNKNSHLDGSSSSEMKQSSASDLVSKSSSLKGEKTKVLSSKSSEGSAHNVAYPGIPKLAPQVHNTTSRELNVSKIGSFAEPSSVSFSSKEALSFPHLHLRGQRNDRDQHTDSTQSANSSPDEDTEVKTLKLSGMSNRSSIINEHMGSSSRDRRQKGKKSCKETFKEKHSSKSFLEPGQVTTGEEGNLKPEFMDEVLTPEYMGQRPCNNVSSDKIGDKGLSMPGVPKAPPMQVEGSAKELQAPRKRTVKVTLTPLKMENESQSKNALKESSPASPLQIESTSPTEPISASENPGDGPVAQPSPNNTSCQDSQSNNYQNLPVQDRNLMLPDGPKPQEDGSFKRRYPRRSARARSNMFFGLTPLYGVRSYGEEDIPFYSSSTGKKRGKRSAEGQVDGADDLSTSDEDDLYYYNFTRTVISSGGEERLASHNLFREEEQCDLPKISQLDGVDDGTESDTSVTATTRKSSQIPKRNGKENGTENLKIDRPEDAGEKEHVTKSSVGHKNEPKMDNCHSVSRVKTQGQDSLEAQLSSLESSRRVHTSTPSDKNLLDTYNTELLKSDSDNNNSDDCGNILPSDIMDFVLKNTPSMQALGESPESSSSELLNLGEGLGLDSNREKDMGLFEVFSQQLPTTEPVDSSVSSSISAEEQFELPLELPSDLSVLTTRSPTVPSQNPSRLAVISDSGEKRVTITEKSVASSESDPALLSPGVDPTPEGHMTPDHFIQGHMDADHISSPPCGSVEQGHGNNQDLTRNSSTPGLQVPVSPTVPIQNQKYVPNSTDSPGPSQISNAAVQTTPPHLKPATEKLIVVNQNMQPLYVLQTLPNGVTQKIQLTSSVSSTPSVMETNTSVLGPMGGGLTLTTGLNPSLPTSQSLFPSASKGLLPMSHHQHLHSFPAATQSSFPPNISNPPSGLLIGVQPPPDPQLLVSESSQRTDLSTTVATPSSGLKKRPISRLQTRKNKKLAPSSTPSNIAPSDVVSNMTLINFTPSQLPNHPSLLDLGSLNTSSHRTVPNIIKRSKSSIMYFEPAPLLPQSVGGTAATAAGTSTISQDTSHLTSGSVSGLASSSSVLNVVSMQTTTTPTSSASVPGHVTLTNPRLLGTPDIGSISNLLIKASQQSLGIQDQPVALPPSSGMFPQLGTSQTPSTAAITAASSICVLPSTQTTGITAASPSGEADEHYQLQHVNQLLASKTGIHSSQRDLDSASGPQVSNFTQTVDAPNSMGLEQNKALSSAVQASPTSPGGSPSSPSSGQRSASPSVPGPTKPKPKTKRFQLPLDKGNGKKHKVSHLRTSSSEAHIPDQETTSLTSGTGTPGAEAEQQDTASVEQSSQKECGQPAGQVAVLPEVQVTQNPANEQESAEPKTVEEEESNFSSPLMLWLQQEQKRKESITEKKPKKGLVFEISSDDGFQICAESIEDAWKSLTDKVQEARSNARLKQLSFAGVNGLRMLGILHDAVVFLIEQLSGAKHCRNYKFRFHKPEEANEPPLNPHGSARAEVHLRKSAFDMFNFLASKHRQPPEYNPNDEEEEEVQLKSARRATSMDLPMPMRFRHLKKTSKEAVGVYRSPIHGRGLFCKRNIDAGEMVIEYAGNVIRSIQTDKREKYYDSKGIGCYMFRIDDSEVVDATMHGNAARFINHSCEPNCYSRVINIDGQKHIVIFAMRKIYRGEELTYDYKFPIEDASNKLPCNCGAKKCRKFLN

SMILES | Potency
C=CCn1c(O)c(/C=C2/C=c3ccccc3=N2)c(=O)[nH]c1=S | inconclusive: 35.5 µM [inhibitor, single point]
COc1ccccc1N1C(=O)NC(=O)/C(=C/c2ccc3c4c(cccc24)CC3)C1=O | inconclusive: 1.12 µM [fluorescent, side channel, full curve]
CCOc1ccc(-n2c(O)c(C=Nc3ccc(N(CC)CC)cc3)c(=O)[nH]c2=O)cc1 | inconclusive: 35.5 µM [fluorescent, side channel, partial curve]
COc1ccc(-n2c(O)c(/C=C3\C=Nc4ccccc43)c(=O)[nH]c2=O)cc1 | inconclusive: 35.5 µM [fluorescent, side channel, partial curve]
CC(C)(C)n1cc(C(=O)c2ccccc2OCCCF)cn1 | inconclusive: 44.7 µM [inhibitor, single point]
O=C(c1ccoc1)N1CCCC(N2CCN(c3cccc(C(F)(F)F)c3)CC2)C1 (stereo not given) | inconclusive: 10 µM [fluorescent, side channel, partial curve]
Cc1cc(C=C2C(=O)N(C)C(=S)N(C)C2=O)c(C)n1C1CCCC1 | inconclusive: 35.5 µM [inhibitor, single point]
Cc1cccc(N2C(=O)NC(=O)/C(=C\c3cccn3-c3ccc(Cl)cc3)C2=O)c1 | inconclusive: 39.8 µM [inhibitor, partial curve]
Cc1cccc(-n2c(/C=C/c3ccc([N+](=O)[O-])o3)nc3ccccc3c2=O)c1 | inconclusive: 39.8 µM [fluorescent, side channel, single point]
CN1CCN(C(=O)C(=O)c2cn(CC(=O)N3CCCC3)c3ccccc23)CC1 | inconclusive: 11.2 µM [quencher, side channel, single point]
CCN1C(=O)NC(=O)/C(=C\c2cn(CC(=O)O)c3ccccc23)C1=O | inconclusive: 25.1 µM [fluorescent, side channel, partial curve]
C=CCN1C(=O)/C(=C/c2ccc(N3CCOCC3)o2)C(=O)NC1=S | inconclusive: 35.5 µM [fluorescent, side channel, partial curve]
N#Cc1c(/N=C/c2ccc(O)cc2O)sc2c1C1CCN2CC1 | inconclusive: 5.62 µM [fluorescent, side channel, full curve]
CCN1CCN(c2ccc(N)cc2C)CC1 | inactive
COc1ccc2c(c1OC)C(=O)OC2c1c(O)n(C2CCCCC2)c(=O)[nH]c1=O (stereo not given) | inconclusive: 44.7 µM [inhibitor, single point]
CCOC(=O)c1c(/N=C/C2C(=O)NC(=S)NC2=O)sc2c1CCC2 | inconclusive: 6.31 µM [fluorescent, side channel, full curve, poor fit]
COc1cc2[nH]c(=O)n(-c3cccc(Cl)c3)c(=O)c2cc1OC | inactive
OC12ONC(c3ccccn3)C1N1CCC2CC1 (stereo not given) | inactive
CN1Cc2c(c(C#N)c(N)n(C)c2=S)CC1(C)C | inconclusive: 89.1 µM [inhibitor, single point]
O=C1NC(=O)N(c2ccccc2)C(=O)/C1=C\c1ccc([N+](=O)[O-])o1 | inconclusive: 31.6 µM [fluorescent, side channel, partial curve]
O=C1C2(c3ccccc3)CN3CN(C2)CC1(c1ccccc1)C3 | inactive
COc1ccc(OC)c(N2C(=O)NC(=O)/C(=C\c3ccc([N+](=O)[O-])s3)C2=O)c1 | inactive
COC(=O)C1=C(C)NC(C)=C(C(=O)OC)C1c1ccccc1[N+](=O)[O-] | inconclusive: 50.1 µM [inhibitor, partial curve, poor fit] and inconclusive: 39.8 µM [inhibitor, single point]
COCCCNC(=O)c1c(NC(=O)c2ccco2)n(Cc2ccccc2)c2nc3ccccc3nc12 | inconclusive: 15.8 µM [fluorescent, side channel, partial curve]
O=C(NC1CCCCC1)N1C[C@H]2C[C@@H](C1)c1cccc(=O)n1C2 | inconclusive: 63.1 µM [inhibitor, single point]
CC1CCN(CC(=O)c2cccc(C(F)(F)F)c2)CC1 | inconclusive: 3.55 µM [fluorescent, side channel, partial curve]
CCN(CC)c1ccc(N=Cc2c(O)n(Cc3ccccc3)c(=O)[nH]c2=O)cc1 | inconclusive: 35.5 µM [fluorescent, side channel, partial curve]
C[C@@H]1C(=O)O[C@H]2C[C@@]34[C@H]5C[C@@H](C(C)(C)C)[C@]36[C@@H](OC(=O)[C@@H]6O)O[C@@]4(C(=O)O5)[C@]21O | inconclusive: 89.1 µM [inhibitor, single point]

Entries above that have a Cl atom (two):
SMILES | Potency
Cc1cccc(N2C(=O)NC(=O)/C(=C\c3cccn3-c3ccc(Cl)cc3)C2=O)c1 | inconclusive: 39.8 µM [inhibitor, partial curve]
COc1cc2[nH]c(=O)n(-c3cccc(Cl)c3)c(=O)c2cc1OC | inactive

(cont.)

SMILES | Potency
O=C1NC(=S)NC(=O)C1=Cc1cccn1-c1ccc(O)cc1 | inconclusive: 70.8 µM [inhibitor, single point]
Cc1c(C=C2C(=O)NC(=O)NC2=O)c(=O)n(-c2ccccc2)n1C | inconclusive: 39.8 µM [inhibitor, single point]
O=C1C(=O)c2ccccc2-c2ccccc21 | inconclusive: 28.2 µM [quencher, side channel, partial curve, poor fit]
Cc1ccc(S(=O)(=O)Oc2ccccc2C=C2C(=O)N(C)C(=O)N(C)C2=O)cc1 | inconclusive: 25.1 µM [inhibitor, partial curve]
Cc1c(C=C2C(=O)N(C)C(=S)N(C)C2=O)c2ccccc2n1CC(=O)NCC1CCCO1 (stereo not given) | inconclusive: 8.91 µM [inhibitor, full curve, poor fit]
COc1ccc2c(c1)c(C(=O)C(C)N1CCCCC1)c(C)n2C (stereo not given) | inconclusive: 10 µM [fluorescent, side channel, single point]
Cc1ccc(C)c(Cn2c(C(=O)O)c(C=O)c3ccccc32)c1 | inconclusive: 31.6 µM [fluorescent, side channel, partial curve]
Cc1cc(C=C2C(=O)NC(=S)NC2=O)c(C)n1-c1ccc2c(c1)OCO2 | inconclusive: 89.1 µM [inhibitor, single point]
O=C1NC(=S)N(c2ccc(F)cc2)C(=O)/C1=C/c1ccco1 | inconclusive: 35.5 µM [inhibitor, single point]
O=c1[nH]c(=O)n(Cc2ccccc2)c(O)c1/C=C1\C=Nc2ccccc21 | inconclusive: 35.5 µM [inhibitor, single point]
CCN1C(=O)C(=Cc2ccc(N3CCOCC3)o2)C(=O)N(CC)C1=S | inconclusive: 28.2 µM [fluorescent, side channel, partial curve]
CCN1C(=O)C(=Cc2cc(C)n(C3CC3)c2C)C(=O)N(CC)C1=S | inconclusive: 35.5 µM [fluorescent, side channel, partial curve]
O=C(O)COc1ccc(/C=C2/SC(=S)N(Cc3ccccc3)C2=O)cc1 | inconclusive: 2.82 µM [inhibitor, full curve, poor fit]
CN1C(=O)N(C)C(=O)C2(Cc3cc(NC(=O)c4ccc(F)cc4)ccc3N3CCCC32)C1=O (stereo not given) | inactive
O=C(C1CCC(=O)N1C1CCCCC1)N1CCC2(CC1)OCCO2 (stereo not given) | inconclusive: 70.8 µM [inhibitor, single point]
Cc1ccc(C(=O)N[C@@H](C)CN2C3=NC[C@H](Cc4ccccc4)N3C[C@H]2Cc2ccc(O)cc2)cc1Br | inconclusive: 44.7 µM [quencher, side channel, single point]
O=C(Cc1ccccc1)NC(Oc1ccccc1Cl)C(Cl)(Cl)Cl (stereo not given) | inconclusive: 1.12 µM [inhibitor, full curve, poor fit]
CN1C(=O)/C(=C/c2ccc(N3CCCCCC3)o2)C(=O)NC1=S | inconclusive: 12.6 µM [fluorescent, partial curve]
COCCNC(=O)Cn1cc(C=C2C(=O)NC(=O)NC2=O)c2ccccc21 | inconclusive: 63.1 µM [fluorescent, side channel, single point]
O=C(Cc1ccc(N(CCCl)CCCl)cc1)NC(Cc1ccc(Cl)cc1)C(=O)O (stereo not given) | inconclusive: 35.5 µM [inhibitor, single point]
O=C(Cc1ccc(Cl)cc1)NCCN1CCN(C(=O)Cc2ccc(Cl)cc2)CC1 | inconclusive: 14.1 µM [fluorescent, side channel, single point]
CN1C2CC(OC(=O)C(CO)c3ccccc3)CC1C1OC12 (stereo not given) | inconclusive: 15.8 µM [quencher, side channel, partial curve]
CCC(=NCCN1CCOCC1)c1c(O)n(-c2ccccc2C)c(=O)[nH]c1=O | inactive
CC(=O)c1ccc(Oc2ccc(C(=O)c3ccc(C)c(C)c3)cc2[N+](=O)[O-])cc1 | inconclusive: 7.08 µM [fluorescent, side channel, full curve, poor fit]
O=C(O)c1ccccc1-c1ccc(C=C2C(=O)N(c3ccccc3)C(=S)N(c3ccccc3)C2=O)o1 | inconclusive: 14.1 µM [inhibitor, partial curve]
COc1ccccc1Oc1c(C)oc2cc(OC(=O)N(C)C)ccc2c1=O | inconclusive: 31.6 µM [inhibitor, single point]
CCOC(=O)C1CCCN(c2ccc([N+](=O)[O-])c3nonc23)C1 (stereo not given) | inconclusive: 4.47 µM [fluorescent, side channel, full curve]

Source: PubChem BioAssay AID2662 (National Center for Advancing Translational Sciences (NCATS), 2010)
